Assay results: article PMC7660922
These are yes or no findings as the source states them, for the method shown. In cells and extracts the contact can be indirect. Binding calls can cover weak binding; strength is not graded here. For part of these data: Sequences can lack the tags named with a protein.

Experiments:
CycB3-Myc (Drosophila) = molecular target: T1, CycB3-Myc (Drosophila) (UniProt Q9I7I0); experiment: co-IP; immunopurification with anti-Myc 9E10 and PrG-coupled magnetic beads from lysates of 0-2 h Drosophila embryos; Western blot
T1 sequence: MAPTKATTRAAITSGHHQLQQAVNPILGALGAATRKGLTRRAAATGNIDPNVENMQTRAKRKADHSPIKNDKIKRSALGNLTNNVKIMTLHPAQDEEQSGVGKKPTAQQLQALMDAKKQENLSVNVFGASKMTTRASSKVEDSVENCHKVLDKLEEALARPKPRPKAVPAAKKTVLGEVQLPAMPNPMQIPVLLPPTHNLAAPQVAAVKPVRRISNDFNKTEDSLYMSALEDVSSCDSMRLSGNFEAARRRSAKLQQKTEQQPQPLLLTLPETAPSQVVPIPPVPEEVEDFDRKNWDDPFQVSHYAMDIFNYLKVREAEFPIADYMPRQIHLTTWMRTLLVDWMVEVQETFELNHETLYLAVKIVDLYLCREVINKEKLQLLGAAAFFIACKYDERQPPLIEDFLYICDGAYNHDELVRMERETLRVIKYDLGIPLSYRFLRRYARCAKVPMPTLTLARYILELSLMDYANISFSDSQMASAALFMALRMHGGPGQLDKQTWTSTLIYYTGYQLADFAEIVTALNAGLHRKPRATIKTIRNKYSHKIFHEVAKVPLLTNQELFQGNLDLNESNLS

CycB3-PrA (Drosophila) = molecular target: T2, CycB3-PrA (Drosophila) (UniProt Q9I7I0); experiment: co-IP; Protein A affinity purification from lysates of co-transfected D-Mel cells on DynaBeads conjugated to rabbit IgG, 1 h at 4°C; lysis buffer 50 mM Tris-Cl pH 7.5, 150 mM NaCl, 0.5% Triton X-100; Western blot
T2 sequence: T1 sequence

GFP-APC6 (Drosophila) = experiment: co-IP; GFP affinity purification (GFP-trap nanobeads, 2 h) from lysates of early Drosophila embryos, with phosphatase inhibitors; Western blot
GFP-APC3 (Drosophila) = experiment: as above

GFP-APC3 (Drosophila)
binding (CycB3-Myc (Drosophila)): binds

GFP-APC6 (Drosophila)
binding (CycB3-Myc (Drosophila)): binds

Myc-APC2 (Drosophila)
binding (CycB3-PrA (Drosophila)): binds

Myc-APC3 (Drosophila)
binding (CycB3-PrA (Drosophila)): binds

B1: endogenous CycB3 (protein, UniProt Q9I7I0 1-575)
chain: T1 sequence
binding (GFP-APC6 (Drosophila)): binds | binding (GFP-APC3 (Drosophila)): binds
